# Experimental data: PubChem BioAssay AID2685 (National Center for Advancing Translational Sciences (NCATS), 2010)
# The other results are listed elsewhere or left out. Further columns of the screen follow, without active or inactive calls. The list favours compounds with an active or inconclusive main result. Potencies come from curve fits of mixed quality, noted in brackets.
# Assay: qHTS Assay for Lipid Storage Modulators in Drosophila S3 Cells;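 as to cell number change: cells counted by Cell Tracker Red CMTPX staining in the red channel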
# Settings: BODIPY lipid droplet fluorescence, 18-24 h; for cell number change: measured here: cell count max response, cells fed with added oleic acid
# Procedure, shortened: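 Laser-scanning cytometry quantifies lipid droplet accumulation (500–530 nm total intensity; droplet/cell object ratio) in oleic acid-fed (400 uM added) Drosophila S3 cells treated with a concentration series. 20 uM Triacsin C defined 100% inhibition.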
# [1] = measured here: cell number channel AC50, cells fed with added oleic acid
# [2] = measured here: lipid fluorescence (Fed channel) AC50, cells fed with added oleic acid
compound,measurement,setting,value
COc1cccc(NC(=O)CSc2nnc(-c3cc(-c4ccccn4)nc4ccccc34)o2)c1,AC50,[1],"0.58 µM [rising, single point]"
same,AC50,[2],"29.1 µM [falling, single point]"
Cc1ccc(SCCC(=O)Nc2c(C)n(C)n(-c3ccccc3)c2=O)cc1,AC50,[2],"0.092 µM [falling, full curve, poor fit]"
COc1ccc(Nc2nc(C)cc(C)c2C(N)=O)cc1OC,cell number change,,17.5%
same,AC50,[1],"2.31 µM [rising, partial curve, poor fit]"
same,AC50,[2],"0.58 µM [rising, single point]"
S=C(NCc1ccccc1)NNc1nc2ccccc2[nH]1,cell number change,,-35.8%
N#Cc1c(Cl)c(Cl)c2nnc(-c3ccc(Br)cc3)n2c1Cl,cell number change,,17.8%
same,AC50,[2],"0.651 µM [rising, full curve, poor fit]"
CC1=C(C(=O)Nc2cc(C(=O)NCCC(C)C)ccc2C)SCCO1,cell number change,,32.4%
COc1cc(C(=O)NCCNc2nc3cc(C)ccc3cc2C#N)cc(OC)c1OC,cell number change,,-19.9%
same,AC50,[2],"20.6 µM [falling, single point]"
COC(=O)c1sccc1NC(=S)N1CCN(c2cccc(C)c2C)CC1,cell number change,,40.2%
same,AC50,[1],"5.8 µM [rising, partial curve, poor fit]"
same,AC50,[2],"0.461 µM [rising, partial curve]"
Cc1nc(NC(=O)c2ccc(Br)o2)ccc1Br,cell number change,,3.31%
same,AC50,[2],"29.1 µM [rising, partial curve]"
Cc1ccc(S(=O)(=O)Nc2ccccc2N2CCOCC2)cc1,cell number change,,12.5%
same,AC50,[1],"0.259 µM [rising, full curve, poor fit]"
Cc1c(/C=N/n2cnnc2)c2ccccc2n1C,AC50,[1],"6.51 µM [rising, single point]"
O=c1cc(-c2ccc(Cl)cc2)[nH][nH]1,cell number change,,-73.1%
same,AC50,[1],"29.1 µM [falling, partial curve, poor fit]"
same,AC50,[2],"0.651 µM [falling, single point]"
CC(C)(Cc1ccccc1)/[N+]([O-])=C\c1ccc(C(F)(F)F)cc1,cell number change,,-4.75%
same,AC50,[1],"0.517 µM [rising, single point]"
O=C(COC(=O)CNC(=O)c1ccco1)NCCN1C(=O)CSC1=O,cell number change,,-10.5%
O=C(Cn1ccc(NC(=O)OCc2ccccc2)nc1=O)NCCc1c[nH]c2ccccc12,cell number change,,-26.9%
same,AC50,[2],"29.1 µM [falling, single point]"
CC(C)=CC(=O)N1CC[C@@H](N2CCN(c3ccccc3F)CC2)[C@H](O)C1,cell number change,,2.62%
same,AC50,[2],"3.66 µM [rising, full curve]"
Cc1ccc(-c2csc3ncnc(N4CCN(C(=O)c5ccccc5)CC4)c23)cc1,cell number change,,13.5%
Cc1cc(NC(=O)CSc2nc3ccccc3n2CC(=O)N2CC(C)CC(C)C2)no1 (stereo not given),cell number change,,25.8%
same,AC50,[2],"4.11 µM [rising, full curve]"
Cc1ccc(C(=O)NC(=S)Nc2c(C)ccc3nsnc23)cc1,cell number change,,11.1%
same,AC50,[1],"5.17 µM [falling, single point]"
same,AC50,[2],"6.51 µM [falling, single point]"
C/C(=N/NS(=O)(=O)c1ccc(CC(C)C)cc1)c1ccncc1,cell number change,,-32.3%
same,AC50,[1],"1.16 µM [falling, single point]"
O=C(O)c1ccc(NC(=O)C2C3CCC(C3)C2C(=O)O)cc1 (stereo not given),cell number change,,6.62%
same,AC50,[2],"0.58 µM [falling, full curve]"
c1nc2ccc(Cc3ccc4nc[nH]c4c3)cc2[nH]1,cell number change,,-21.5%
same,AC50,[2],"6.51 µM [rising, single point]"
COC(=O)[C@@]1(Cc2ccc(OC)cc2)[C@H]2c3cc(C(=O)N4CCCC4)n(CCc4c[nH]c5ccc(O)cc45)c3C[C@H]2CN1C(=O)c1ccccc1,cell number change,,9.36%
same,AC50,[1],"0.0326 µM [rising, partial curve, poor fit]"
Fc1cccc(/C=N/NC(=S)Nc2ccccc2Cl)c1,cell number change,,7.21%
same,AC50,[2],"0.461 µM [rising, partial curve]"
COc1ccc(CNC(=O)CNS(=O)(=O)c2ccc(Cl)cc2)cc1,cell number change,,-36.7%
same,AC50,[1],"0.82 µM [falling, full curve, poor fit]"
same,AC50,[2],"0.731 µM [falling, full curve]"
CCOC(=O)c1sc(Nc2nc(C)cc(OC)n2)nc1C,cell number change,,-39.3%
same,AC50,[1],"29.1 µM [falling, single point]"
same,AC50,[2],"29.1 µM [falling, single point]"
Cc1ccc(Oc2ncc(-c3ccc(Cl)cc3)cn2)cc1,cell number change,,16%
same,AC50,[2],"25.9 µM [rising, single point]"
O=C(O)c1ccccc1-c1nc2cc(Cl)ccc2c(=O)n1O,cell number change,,-63.2%
same,AC50,[1],"16.4 µM [falling, partial curve]"
same,AC50,[2],"5.8 µM [falling, full curve, poor fit]"
CN(CC(=O)Nc1ccccc1Br)C(=O)c1cccc(S(=O)(=O)NCc2ccccc2)c1,cell number change,,42.8%
same,AC50,[1],"18.4 µM [rising, single point]"
Cc1cc(CSc2ccccc2C(=O)O)on1,cell number change,,9.58%
O=C(NCCc1c[nH]c2ccccc12)c1cnccn1,cell number change,,28.9%
same,AC50,[1],"4.61 µM [rising, full curve, poor fit]"
same,AC50,[2],"2.59 µM [rising, full curve]"
Cc1ccccc1Nc1nc(N)nc(CSc2nnnn2C)n1,AC50,[2],"2.59 µM [rising, single point]"
COc1ccc(C(=O)OCc2ccccc2F)cc1S(=O)(=O)N1CCCC1,cell number change,,18.2%
same,AC50,[2],"9.2 µM [falling, partial curve]"
N#Cc1cccc(C(=O)Nc2cccc(S(=O)(=O)N3CCCC3)c2)c1,cell number change,,-25.4%
same,AC50,[2],"23.1 µM [falling, partial curve]"
CC(=O)Nc1ccc(NC(=O)CSc2nnc(NC(=O)c3ccco3)s2)cc1,cell number change,,24.2%
same,AC50,[2],"3.26 µM [rising, full curve]"
CC(C)NC(=O)c1ccccc1NC(=O)Cc1ccc([N+](=O)[O-])cc1,cell number change,,109%
same,AC50,[1],"0.13 µM [falling, full curve, poor fit]"
same,AC50,[2],"0.116 µM [falling, full curve, poor fit]"
COCCNC(=S)Nc1cc2oc3ccccc3c2cc1OC,cell number change,,20.9%
same,AC50,[2],"0.259 µM [rising, full curve]"

# For convenience, part of the list above:
compound,measurement,setting,value
Cc1ccc(SCCC(=O)Nc2c(C)n(C)n(-c3ccccc3)c2=O)cc1,AC50,[2],"0.092 µM [falling, full curve, poor fit]"
COc1ccc(Nc2nc(C)cc(C)c2C(N)=O)cc1OC,cell number change,,17.5%
same,AC50,[1],"2.31 µM [rising, partial curve, poor fit]"
same,AC50,[2],"0.58 µM [rising, single point]"
S=C(NCc1ccccc1)NNc1nc2ccccc2[nH]1,cell number change,,-35.8%
N#Cc1c(Cl)c(Cl)c2nnc(-c3ccc(Br)cc3)n2c1Cl,cell number change,,17.8%
same,AC50,[2],"0.651 µM [rising, full curve, poor fit]"
CC1=C(C(=O)Nc2cc(C(=O)NCCC(C)C)ccc2C)SCCO1,cell number change,,32.4%
COc1cc(C(=O)NCCNc2nc3cc(C)ccc3cc2C#N)cc(OC)c1OC,cell number change,,-19.9%
same,AC50,[2],"20.6 µM [falling, single point]"
COC(=O)c1sccc1NC(=S)N1CCN(c2cccc(C)c2C)CC1,cell number change,,40.2%
same,AC50,[1],"5.8 µM [rising, partial curve, poor fit]"
same,AC50,[2],"0.461 µM [rising, partial curve]"
Cc1nc(NC(=O)c2ccc(Br)o2)ccc1Br,cell number change,,3.31%
same,AC50,[2],"29.1 µM [rising, partial curve]"
